Paper PMC7702703
These are yes or no findings as the source states them, for the method shown. Some binding calls cover weakened binding; strength is not graded here.

Protein sequences, listed by entry. Tags and fused reporters are not part of them. Lines headed by an entry give the natural chain unless they say otherwise; changes in a name come on top. Chains listed by the source or under a name are the forms on record and can include a tag or linker.
UniProt P10852: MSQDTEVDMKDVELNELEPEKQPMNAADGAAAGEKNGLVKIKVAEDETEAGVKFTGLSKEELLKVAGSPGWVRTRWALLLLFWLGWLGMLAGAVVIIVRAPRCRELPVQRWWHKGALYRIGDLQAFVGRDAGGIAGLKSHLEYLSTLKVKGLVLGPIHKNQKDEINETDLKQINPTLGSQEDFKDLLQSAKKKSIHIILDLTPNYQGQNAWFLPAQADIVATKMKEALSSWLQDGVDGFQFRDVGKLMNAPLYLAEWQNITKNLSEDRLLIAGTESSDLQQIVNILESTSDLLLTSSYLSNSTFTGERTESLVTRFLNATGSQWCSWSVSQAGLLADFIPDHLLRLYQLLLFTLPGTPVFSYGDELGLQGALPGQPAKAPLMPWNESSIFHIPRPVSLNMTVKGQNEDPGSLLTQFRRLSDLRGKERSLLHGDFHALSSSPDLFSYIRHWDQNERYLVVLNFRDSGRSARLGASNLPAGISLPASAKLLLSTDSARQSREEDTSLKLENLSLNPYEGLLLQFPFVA
UniProt Q9Z127: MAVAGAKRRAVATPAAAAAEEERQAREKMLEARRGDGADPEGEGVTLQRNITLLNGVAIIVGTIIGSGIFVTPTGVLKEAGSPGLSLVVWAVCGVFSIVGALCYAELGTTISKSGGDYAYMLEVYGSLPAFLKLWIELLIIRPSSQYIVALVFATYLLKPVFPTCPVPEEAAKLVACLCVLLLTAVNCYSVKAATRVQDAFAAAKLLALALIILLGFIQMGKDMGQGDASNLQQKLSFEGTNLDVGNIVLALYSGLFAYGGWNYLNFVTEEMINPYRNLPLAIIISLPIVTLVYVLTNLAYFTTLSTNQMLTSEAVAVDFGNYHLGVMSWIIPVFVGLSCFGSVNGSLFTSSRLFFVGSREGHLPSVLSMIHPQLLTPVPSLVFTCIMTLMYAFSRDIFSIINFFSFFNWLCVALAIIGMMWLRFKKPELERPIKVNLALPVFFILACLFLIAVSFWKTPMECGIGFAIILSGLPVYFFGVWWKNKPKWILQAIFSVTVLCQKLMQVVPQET
exon 3-deleted LAT1 (LAT1-Δex3) (Q9Z127, form named): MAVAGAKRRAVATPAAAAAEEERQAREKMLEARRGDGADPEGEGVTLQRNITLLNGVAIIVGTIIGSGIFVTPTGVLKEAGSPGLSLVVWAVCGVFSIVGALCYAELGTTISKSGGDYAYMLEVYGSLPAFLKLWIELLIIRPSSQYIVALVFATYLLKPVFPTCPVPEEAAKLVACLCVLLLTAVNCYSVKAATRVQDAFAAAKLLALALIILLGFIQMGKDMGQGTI

Target: 4F2 heavy chain (4F2hc) (UniProt P10852)
Assay: non-reducing SDS-PAGE and western blot (DTT-sensitive heterodimer band); total membrane fractions of X. laevis oocytes 2 days after cRNA injection (LAT1 or LAT1-Δex3 alone or with equimolar 4F2hc cRNA); western blotting with mLAT1(R) antibody and 4F2hc antibody in the presence or absence of 100 mM DTT

| Substance | binding |
| --- | --- |
| L-type amino acid transporter 1 (LAT1), wild type (from UniProt Q9Z127 1-512) | binds |
| exon 3-deleted LAT1 (LAT1-Δex3) (from UniProt Q9Z127 1-227) (domain or fragment) | no binding |
